Test results reported in article PMC3637639.
No constants are given. Whether binding was seen depends on the method and setting. Binding seen in cells or lysates may run through a third protein. Some entries that bind do so weakly or less than the wild type. For part of these data: Where a sequence is shown, tags or fusion partners need not be part of it.

The chains behind the UniProt entries cited, without tags or fusion partners. Residues count along the entry.
UniProt P49582, residues 23-502: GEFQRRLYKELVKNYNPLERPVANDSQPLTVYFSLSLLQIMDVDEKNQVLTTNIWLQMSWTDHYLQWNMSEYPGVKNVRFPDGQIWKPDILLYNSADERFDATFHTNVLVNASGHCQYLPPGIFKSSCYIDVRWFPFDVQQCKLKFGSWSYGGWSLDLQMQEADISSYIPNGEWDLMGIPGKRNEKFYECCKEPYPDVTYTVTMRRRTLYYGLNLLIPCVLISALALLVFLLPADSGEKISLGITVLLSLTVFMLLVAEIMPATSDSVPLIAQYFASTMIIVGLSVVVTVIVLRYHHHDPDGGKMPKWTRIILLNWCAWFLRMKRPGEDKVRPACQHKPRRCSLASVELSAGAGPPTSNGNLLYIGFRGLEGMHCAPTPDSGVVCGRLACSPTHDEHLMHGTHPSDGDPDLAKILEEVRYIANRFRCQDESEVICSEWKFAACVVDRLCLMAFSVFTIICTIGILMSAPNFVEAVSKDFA
UniProt Q9ERK7: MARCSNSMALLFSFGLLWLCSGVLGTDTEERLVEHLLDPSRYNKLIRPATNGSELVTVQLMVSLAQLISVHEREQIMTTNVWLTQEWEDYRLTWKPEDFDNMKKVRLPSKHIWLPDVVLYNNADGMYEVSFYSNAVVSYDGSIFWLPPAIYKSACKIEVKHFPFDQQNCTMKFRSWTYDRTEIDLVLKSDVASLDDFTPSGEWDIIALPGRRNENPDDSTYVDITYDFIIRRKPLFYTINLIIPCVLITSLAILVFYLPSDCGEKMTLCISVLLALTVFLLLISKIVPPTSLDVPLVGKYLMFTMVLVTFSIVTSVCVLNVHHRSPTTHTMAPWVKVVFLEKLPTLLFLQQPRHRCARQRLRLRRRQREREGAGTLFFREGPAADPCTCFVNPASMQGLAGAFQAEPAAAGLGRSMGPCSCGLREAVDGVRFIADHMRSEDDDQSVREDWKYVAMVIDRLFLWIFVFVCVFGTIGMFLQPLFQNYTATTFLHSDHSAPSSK
UniProt O70174, residues 31-629: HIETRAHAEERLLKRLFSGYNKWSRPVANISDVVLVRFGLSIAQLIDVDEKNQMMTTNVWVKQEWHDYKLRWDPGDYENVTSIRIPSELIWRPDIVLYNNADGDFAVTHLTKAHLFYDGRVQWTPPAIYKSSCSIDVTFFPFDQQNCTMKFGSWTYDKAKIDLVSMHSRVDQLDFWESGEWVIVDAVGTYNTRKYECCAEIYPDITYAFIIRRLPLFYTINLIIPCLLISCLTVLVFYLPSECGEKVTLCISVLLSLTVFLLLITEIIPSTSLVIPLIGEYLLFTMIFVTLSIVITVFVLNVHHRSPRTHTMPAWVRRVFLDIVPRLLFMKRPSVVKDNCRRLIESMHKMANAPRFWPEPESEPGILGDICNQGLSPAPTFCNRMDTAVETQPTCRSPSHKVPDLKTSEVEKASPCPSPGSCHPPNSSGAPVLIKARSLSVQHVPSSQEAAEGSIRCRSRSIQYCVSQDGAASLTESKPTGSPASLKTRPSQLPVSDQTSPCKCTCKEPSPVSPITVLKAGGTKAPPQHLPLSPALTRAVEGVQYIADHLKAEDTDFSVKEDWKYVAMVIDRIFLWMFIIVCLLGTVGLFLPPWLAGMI

Key:
Test in all cases: FRET or BRET; sensitized acceptor emission FRET (pixel- or ROI-based, PixFRET) between channel subunits tagged with donor (CFP/Cerulean) and acceptor (YFP/Venus), equimolar cDNAs co-transfected in living HEK293T cells, imaged 2 days after transfection in ECS pH 7.4 at 30°C; with or without untagged RIC-3 (0:1 to 5:1 cDNA ratio); in some experiments nicotine (0.1, 1 or 10 μM) for 30 min at 37°C before imaging
[1] = molecular target: α7-Venus nAChR subunit (mouse) (UniProt P49582)
[2] = molecular target: β2CFP nAChR subunit (mouse) (UniProt Q9ERK7)
[3] = molecular target: T1, GluClβ-YFP (glutamate-gated chloride channel β subunit tagged with YFP) (UniProt Q17328)
T1 sequence: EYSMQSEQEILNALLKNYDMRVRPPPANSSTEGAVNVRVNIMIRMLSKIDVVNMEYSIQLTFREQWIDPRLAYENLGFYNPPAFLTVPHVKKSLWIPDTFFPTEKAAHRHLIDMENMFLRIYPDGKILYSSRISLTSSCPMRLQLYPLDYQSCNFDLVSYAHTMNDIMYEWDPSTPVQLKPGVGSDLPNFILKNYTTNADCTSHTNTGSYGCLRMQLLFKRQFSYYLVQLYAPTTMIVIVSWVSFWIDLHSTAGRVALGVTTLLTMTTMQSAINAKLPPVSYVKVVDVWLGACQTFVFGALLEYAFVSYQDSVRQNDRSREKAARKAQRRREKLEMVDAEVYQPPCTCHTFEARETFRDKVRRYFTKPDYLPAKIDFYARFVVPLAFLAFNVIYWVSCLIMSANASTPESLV

α7-Cerulean nAChR subunit (from UniProt P49582 23-502) (receptor)
binding [1]: binds

α4YFP nAChR subunit (from UniProt O70174 31-629) (receptor)
binding [2]: binds

B1: GluClα-CFP (glutamate-gated chloride channel α subunit tagged with CFP) (receptor, UniProt G5EBR3 21-461)
chain: QQARTKSQDIFEDDNDNGTTTLESLARLTSPIHIPIEQPQTSDSKILAHLFTSGYDFRVRPPTDNGGPVVVSVNMLLRTISKIDVVNMEYSAQLTLRESWIDKRLSYGVKGDGQPDFVILTVGHQIWMPDTFFPNEKQAYKHTIDKPNVLIRIHNDGTVLYSVRISLVLSCPMYLQYYPMDVQQCSIDLASYAYTTKDIEYLWKEHSPLQLKVGLSSSLPSFQLTNTSTTYCTSVTNTGIYSCLRTTIQLKREFSFYLLQLYIPSCMLVIVSWVSFWFDRTAIPARVTLGVTTLLTMTAQSAGINSQLPPVSYIKAIDVWIGACMTFIFCALLEFALVNHIANKQGVERKARTEREKAEIPLLQNLHNDVPTKVFNQEEKVRTVPLNRRQMNSFLNLLETKTEWNDISKRVDLISRALFPVLFFVFNILYWSRFGQQNVLF
binding [3]: binds
